Experimental data taken from patent US7465544B2, “Synthetic cofactor analogs of S-adenosylmethionine as ligatable probes of biological methylation and methods for their use” (Wisconsin Alumni Research Foundation, priority 2006, dated 2008).

Key:
[1] = test system: 56-modified DNA; test: Aqueous Huisgen [2+3] cycloaddition with alkyne-modified DNA (DPAGE)
[2] = test system: azide-linked DNA; test: Staudinger ligation of triarylphosphines with cofactor analog-linked 32P-labeled oligonucleotide (DPAGE); details: 500 nM DNA, 20-fold excess of triarylphosphine, 37° C. 14 h; M.TaqI-derived products
[3] = test system: Immobilized Streptavidin; test: Immobilized streptavidin pull-down assay; format: binding; details: for retention of radiolabeled DNA on streptavidin-agarose, aryl azide adduct / retention of radiolabeled DNA on streptavidin-agarose, alkyl azide adduct 25b: M.TaqI products, scintillation counting; for retention of radiolabeled DNA on streptavidin-agarose, aryl azide adduct: relative to a DMF control devoid of phosphine; for ligation to azide-linked pUC19 via the streptavidin pull-down assay: initial efforts
[4] = test system: DNA alkylated by 67; test: Piperidine digestion of DNA alkylated by 67; details: 0.5M piperidine, 90° C., 30 min

Compound | Huisgen cycloaddition of modified DNA with azide 62 [1] | Staudinger ligation to cofactor analog-modified DNA (DNA mobility shift) [2] | retention of radiolabeled DNA on streptavidin-agarose, aryl azide adduct [3] | retention of radiolabeled DNA on streptavidin-agarose, alkyl azide adduct 25b [3] | ligation to azide-linked pUC19 via the streptavidin pull-down assay [3] | piperidine-promoted cleavage specific to reactions with both MTase and 67 [4]
C#CCN(CCI)C[C@H]1O[C@@H](n2cnc3c(N)ncnc32)[C@@H](O)C1O (stereo partly drawn) [compound 56, 5′-[(iodoethyl)propargyl)amino]-2′,3′-5′-deoxyadenosine hydrochloride] | extremely facile coupling |  |  |  |  | 
5′-aziridine adenylate [compound 3, reference compound] | afforded no new radiolabeled product | no shift |  |  |  | 
O=C(CCCC[C@@H]1SC[C@@H]2NC(=O)N[C@@H]21)NCCCCCOC(=O)c1ccccc1P(c1ccccc1)c1ccccc1 [compound 44, 2-Diphenylphosphanyl-benzoic acid 5-(biotin)-pentyl ester] |  | only ligated to the product derived from 25a; also recorded: remarkably efficient | high degree of radioisotopic retention | did not ligate | failed to yield discernible ligation | 
Nc1ncnc2c1ncn2[C@@H]1O[C@H](CN(CCI)CC[C@H](N)C(=O)O)C(O)[C@@H]1O (stereo partly drawn) [compound 67, 5′-(diaminobutyric acid)-N-iodoethyl-5′-deoxyadenosine ammonium hydrochloride] |  |  |  |  |  | did not lead to significant cleavage events
COC(=O)c1ccc(C(=O)NCCCOCCOCCOCCCNC(=O)CCCC[C@@H]2SC[C@@H]3NC(=O)N[C@@H]32)cc1P(c1ccccc1)c1ccccc1 [compound 42] |  | significant reduction in DNA mobility | high degree of radioisotopic retention | retention of radioactivity | failed to yield discernible ligation | 

“Also recorded” adds a separate entry of the source. Where a name gives a salt, the structure may show the parent alone.
